How the values were obtained:
[1] = tested on: chlorinated ethenes (PCE, TCE) in groundwater; experiment: Biostimulation pilot test, IR Site 40, Seal Beach (Example 4)
Experimental: A biostimulation pilot-test program for in situ anaerobic bioremediation of chlorinated ethenes in groundwater was conducted at Installation Restoration (IR) Program Site 40, Naval Weapons Station Seal Beach, Calif. IR Site 40 includes a concrete pit in a locomotive shop building and a gravel area north of and adjacent to the building. Oil and solvents spilled during locomotive maintenance collected in the pit and discharged to the gravel area via a drainpipe (FIG. 11). Groundwater was contaminated with chlorinated solvents, primarily PCE and trichloroethene (TCE). The plume extends over 100 meters (m) downgradient of the source area and is generally limited in extent to approximately 20 m below ground surface. The groundwater gradient is relatively flat and is influenced by tidal fluctuations. The net gradient direction is southeasterly. The Seal Beach National Wildlife Refuge lies downgradient of the site.
The tests were conducted in the area interpreted to have the highest PCE concentrations in groundwater. The tests were conducted over an 8-month period from August 2001 through mid-March 2002. Approximately 210,000 liters (55,500 gallons) of 3 percent sodium lactate solution was injected. A direct injection system was selected over recirculation to avoid reinjection of untreated water into the test cell. […]
Effects were monitored in seven wells in the pilot-test area. […] Weekly groundwater samples were collected during and analyzed on-site using field test kits for sulfate, ferrous iron, alkalinity, chemical oxygen demand (COD) (Hach, Loveland, Colo.), nitrate, and carbon dioxide (CHEMetrics, Calverton, Va.) and direct reading instrumentation for pH, temperature, conductivity, oxidation-reduction potential, and dissolved oxygen (YSI, Yellow Springs, Ohio). Monthly groundwater samples were analyzed off-site for volatile organic compounds, alkalinity, COD, anions, cations, total dissolved solids (Columbia Analytical Services, Kelso, Wash.), and dissolved gases (Performance Analytical, Simi Valley, Calif.). […]

[2] = tested on: PCE/TCE plume in ground water; experiment: Sodium lactate injection pilot test, Tennessee Air National Guard Site, Memphis (Example 3)
From the text: Site Background. A site-wide Remedial Investigation (RI) identified a chlorinated solvent plume in a sandy aquifer approximately 35 to 60 feet (10.7 to 18.3 m) below ground surface at the 164th Airlift Wing at the Tennessee Air National Guard Site, Memphis, Tenn. The plume area targeted for treatment was over 2 acres (0.81 hectares). This unconfined saturated interval is overlain by an inorganic loess vadose zone and is separated from the deeper regional aquifer by a clay unit. PCE concentrations ranged from 5 to 1,000 μg/L in the target area, while TCE ranged from 100 to greater than 15,000 μg/L in the injection/monitoring wells. […] A pilot test of a sodium lactate injection system to enhance natural reductive dechlorination in the groundwater was approved by the Tennessee Department of Environment and Conservation, the Memphis and Shelby County Health Department, and the Shelby County Ground Water Control Board.
System Design. A three-dimensional model to simulate groundwater flow was developed using the MODFLOW simulator (U.S. Geological Survey). Once calibrated, model simulations were used to determine the optimal injection well locations, as well as the rate and duration of injection. Based on the results of other sodium lactate injection sites, a period of 60 days between injections was assumed. The optimal configuration was determined to be a 9-well injection system at an injection rate of 10 gallons per minute (gpm; 37.8 liters/minute) for 5 days.
Potable water was mixed with 60% sodium lactate to create a 1% solution. An existing 8-inch (20.3-cm) water line was tapped and connected to the distribution control header via a 4-inch (10.2-cm) line, which was housed in a portable 12-ft×14-ft (3.6-m×4.3-m) building. A double-check valve assembly was installed on the 4-inch (10.2-cm)water line to prevent back-siphoning of the injection solution into the 8-inch (20.3-cm) potable water line. Following a mixing zone with the potable water, the resulting 1% solution was delivered to the nine injection wells. […]

With `CC(O)C(=O)[O-].[Na+]` (stereo not drawn) [sodium lactate] the sulfate ([1]; after one to three months, depending on distance from the injection well) was “reduced to below detection limits”, the “groundwater pH (lowest)” value ([1]; dropped from approximately 7.5 during lactate fermentation) was “below 6” and the oxidation-reduction potential ([1]; dropped from approximately 150) was roughly −300 millivolts. For the same compound, the “COD level (highest)” value ([2]; first sampling event about 6 weeks after injection, 1 monitoring well) was ≤ 4,000 mg/L, the COD maximum concentration ([2]; monitoring well 03-010MW, during the monitoring period) was 319 mg/L and the COD level ([2]; wells IW-1 and IW-2) was > 2,000 mg/L.

— patent US7449114B2, “Halogenated solvent remediation” (SRP Technologies, Inc., priority 2000, dated 2008)
